Structures can show the parent of a compound that is named as a salt. Some of the results follow. Most values lie at the level of the controls, where differences are scatter.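 Differential scanning fluorimetry gave melting temperatures in a one-replicate pilot screen of a library of approved drugs plus clinical or known-target compounds. Hits increasing melting point at least 2 °C were the strongest stabilizers, while negative shifts signify destabilization.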

This test has as its system SARS-CoV-2 main protease (Mpro, nsp5). Briefly: thermal shift ΔTm of Mpro relative to plate average Tm; higher = stronger thermal stabilization of Mpro (binding). Conditions: 10 µM; protein concentration 1 µM.
Regarding `O=C(O)[C@@H]1CSCN1` [Thioproline], the “thermal shift ΔTm of Mpro” value is 0.0578 °C.
For `C=C[C@@]1(C)CC(=O)[C@]2(O)[C@@]3(C)[C@@H](O)CCC(C)(C)[C@@H]3[C@H](O)[C@H](OC(C)=O)[C@@]2(C)O1` [Forskolin], the “thermal shift ΔTm of Mpro” value is -0.0452 °C.
For `COc1ccc(CN2CCNCC2)c(OC)c1OC` [Trimetazidine dihydrochloride], the “thermal shift ΔTm of Mpro” value stood at 0.388 °C.
Turning to `COc1cc2/c(=N/c3ccc(Br)cc3F)nc[nH]c2cc1OCC1CCN(C)CC1` [Vandetanib (ZD6474)], the “thermal shift ΔTm of Mpro” value is -0.0147 °C.
Consider `Cn1cc(C[C@@H](N)C(=O)O)c2ccccc21` [Indoximod], for which the “thermal shift ΔTm of Mpro” value is -0.00687 °C.
Take `C/C(=C(\CCOP(=O)(O)O)SC(=O)c1ccccc1)N(C=O)Cc1cnc(C)nc1N` [Benfotiamine]: the “thermal shift ΔTm of Mpro” value came out at 0.0742 °C.
Consider `Cc1noc(-c2ccc(-c3ccc(CC(=O)O)cc3)cc2)c1NC(=O)O[C@H](C)c1ccccc1`, for which the “thermal shift ΔTm of Mpro” value is -0.0531 °C.
Consider `CCCCC(CC)COC(=O)C(C#N)=C(c1ccccc1)c1ccccc1` (stereo not given) [Octocrilene], for which the “thermal shift ΔTm of Mpro” value is -0.203 °C.
Take `Nc1c2c(nc3ccccc13)CCCC2` [Tacrine hydrochloride hydrate]: the “thermal shift ΔTm of Mpro” value is 0.229 °C.
Take `O=c1sn(-c2cccc3ccccc23)c(=O)n1Cc1ccccc1` [Tideglusib]: the “thermal shift ΔTm of Mpro” value was -18.1 °C.
On to `NC(N)=NCC(=O)O` [Guanidoacetic acid], for which the “thermal shift ΔTm of Mpro” value turned out to be 0.0149 °C.
In the case of `O=c1cc(-c2ccccc2)oc2cc(O)cc(O)c12` [Chrysin], the “thermal shift ΔTm of Mpro” value is -0.0275 °C.
Consider `C[C@H](O)C(=O)[O-].[Na+]` [(L)-Sodium lactate], for which the “thermal shift ΔTm of Mpro” value is 0.12 °C.
As to `COc1ccc2c(c1)c(C1=C(c3c[nH]c4ccccc34)C(=O)NC1=O)cn2CCCN(C)C`, the “thermal shift ΔTm of Mpro” value is -0.033 °C.
With `CC(C)(C)C(=O)C(Oc1ccc(Cl)cc1)n1ccnc1` (stereo not given) [Climbazole], the “thermal shift ΔTm of Mpro” value is 0.129 °C.
Turning to `Cc1ccccc1OCC(O)CO` (stereo not given) [Mephenesin], the “thermal shift ΔTm of Mpro” value is -0.0923 °C.
`CC(C)N(CCCNC(=O)Nc1ccc(C(C)(C)C)cc1)C[C@H]1O[C@@H](n2cc(Br)c3c(N)ncnc32)[C@H](O)[C@@H]1O`: the “thermal shift ΔTm of Mpro” value was -0.0906 °C.
Regarding `C[C@H](N)[C@H](O)c1cccc(O)c1` [Metaraminol bitartrate], the “thermal shift ΔTm of Mpro” value was -0.181 °C.
With `COC(=O)c1ccccc1NC(=O)c1ccc(F)cc1`, the “thermal shift ΔTm of Mpro” value was -0.23 °C.
As to `COc1cccc(Oc2c(NS(=O)(=O)c3ccc(C(C)(C)C)cc3)ncnc2OCCO)c1`, the “thermal shift ΔTm of Mpro” value was -0.0408 °C.
Regarding `CCN(CC)CCOC(=O)C(Cc1cccc2ccccc12)CC1CCCO1` (stereo not given) [Nafronyl oxalate], the “thermal shift ΔTm of Mpro” value came out at 0.0796 °C.
In the case of `Cn1cc(-c2nc(N[C@@H]3CCCC[C@@H]3N)c(F)c3c2C(=O)NC3)cn1` [TAK-659 hydrochloride] it was 0.0932 °C; in that of `CC1(C)S[C@@H]2[C@H](NC(=O)C(C(=O)O)c3ccccc3)C(=O)N2[C@H]1C(=O)O` (stereo not given in full) [Carbenicillin disodium], -0.0804 °C; in that of `O=C1CN(/N=C/c2ccc(-c3ccc([N+](=O)[O-])cc3)o2)C(=O)N1` [Dantrolene sodium hemiheptahydrate], 0.0167 °C.
Consider `O=C1CN(/N=C/c2ccc(-c3ccc([N+](=O)[O-])cc3)o2)C(=O)N1` [Dantrolene sodium salt], for which the “thermal shift ΔTm of Mpro” value was determined as 0.0679 °C.
For the molecule `Nc1[nH]nc2nnc(-c3c(-c4ccccc4)nn4ccccc34)cc12`, the “thermal shift ΔTm of Mpro” value was -0.162 °C.
For the molecule `CCOC(=O)n1ccn(C)c1=S` [Carbimazole], the “thermal shift ΔTm of Mpro” value amounted to 0.00367 °C.
Take `CC1(O)CCC(C(C)(C)O)CC1` (stereo not given) [Terpin Monohydrate]: the “thermal shift ΔTm of Mpro” value was -0.0085 °C.
Regarding `COc1cc(N2CCC(N)CC2)ccc1Nc1ncc(Cl)c(-c2c[nH]c3ccccc23)n1`, the “thermal shift ΔTm of Mpro” value worked out at 0.531 °C.
`O=c1cc[nH]c2ccccc12` [4-Hydroxyquinoline]: the “thermal shift ΔTm of Mpro” value was -0.00671 °C.
In the case of `CC1(C)S[C@@H]2[C@H](NC(=O)[C@H](C(=O)O)c3ccsc3)C(=O)N2[C@H]1C(=O)O` [Ticarcillin disodium], the “thermal shift ΔTm of Mpro” value worked out at 0.284 °C.
In the case of `COc1c/c(=C2\C=c3ccccc3=N2)[nH]/c1=C\c1[nH]c(C)cc1C` [Obatoclax Mesylate (GX15-070)] it was 0.599 °C; in that of `O=C(N[C@H]1CN2CCC1CC2)c1ccc(Cl)cc1`, 0.013 °C.
Consider `C=C[C@H]1CN2CC[C@H]1C[C@H]2[C@H](OC(=O)OCC)c1ccnc2ccc(OC)cc12` [Euquinine], for which the “thermal shift ΔTm of Mpro” value amounted to 0.239 °C.
Consider `c1cc(-c2cnn3cc(-c4ccc(N5CCNCC5)cc4)cnc23)c2cccnc2c1`, for which the “thermal shift ΔTm of Mpro” value was -0.145 °C.
To `O=C([O-])CN(CCN(CC(=O)[O-])CC(=O)O)CC(=O)[O-].[Na+].[Na+].[Na+]` [Edetate Trisodium] belongs 0.251 °C; to `Cn1c(=O)c(Oc2ccc(F)cc2F)cc2cnc(NC(CCO)CCO)nc21` [Pamapimod], 0.0214 °C.
Regarding `NCCCC[C@@H]1NC(=O)[C@@H](Cc2ccccc2)NC(=O)[C@H](CC(=O)O)NC(=O)CNC(=O)[C@H](CCCN=C(N)N)NC1=O` [Cyclo (-RGDfK)], the “thermal shift ΔTm of Mpro” value was -0.00264 °C.
In the case of `C[C@@H]1CC(=O)Nc2cccc(-c3ccc4c(c3)c(-c3cnn(C)c3)nn4C)c2N1`, the “thermal shift ΔTm of Mpro” value is -0.0724 °C.
Consider `CCN(CC)CCNC(=O)c1c(C)[nH]c(/C=C2\C(=O)Nc3ccc(-c4csc(-c5ccccc5)n4)cc32)c1C` [Amcasertib], for which the “thermal shift ΔTm of Mpro” value came out at 0.358 °C.
In the case of `COc1cc(C(C)=O)ccc1OCCCN1CCC(c2noc3cc(F)ccc23)CC1` [Iloperidone] it was 0.374 °C; in that of `CCOC(=O)[C@H](CCc1ccccc1)N[C@H]1CCCN2CCC[C@@H](C(=O)O)N2C1=O` [Cilazapril Monohydrate], 0.0842 °C.
With `CNC(=O)[C@@H](c1ccccc1)N1CCc2cc(OC)c(OC)cc2[C@@H]1CCc1ccc(C(F)(F)F)cc1` [Almorexant HCl], the “thermal shift ΔTm of Mpro” value is -0.491 °C.
Turning to `CNC(=O)[C@@H](c1ccccc1)N1CCc2cc(OC)c(OC)cc2[C@@H]1CCc1ccc(C(F)(F)F)cc1` [Almorexant], the “thermal shift ΔTm of Mpro” value was -0.12 °C.
To `CCCC1O[C@@H]2C[C@H]3[C@@H]4CCC5=CC(=O)C=C[C@]5(C)[C@H]4[C@@H](O)C[C@]3(C)[C@]2(C(=O)CO)O1` (stereo not given in full) [Budesonide] belongs 0.146 °C; to `Cc1cc(O)ccc1Cl` [Chlorocresol], -0.175 °C; to `COc1ccc(/C=C\c2cc(OC)c(OC)c(OC)c2)cc1O` [Combretastatin A4], -0.204 °C.
To `Cc1cccc(C)c1N(CC(=O)Nc1ccc(-c2ncon2)cc1)C(=O)C1CCS(=O)(=O)CC1` [Amenamevir] belongs -0.0331 °C; to `CC1=C(C(=O)Nc2cc3cn[nH]c3cc2F)C(c2ccc(C(F)(F)F)cc2)CC(=O)N1` (stereo not given), 0.324 °C.
With `CNC(=O)c1ccccc1Nc1nc(Nc2ccc(N3CCOCC3)cc2OC)ncc1Cl`, the “thermal shift ΔTm of Mpro” value is -0.0819 °C.
